These are yes or no findings as the source states them, for the method shown. Binding seen in cells or lysates may run through a third protein. Tags and fused reporters may be left off the sequences shown.
Biological target: GST-RIIβ (UniProt P31323)
Experiment: pull-down; GST-fusion proteins on glutathione Sepharose beads incubated with whole-cell lysates of HEK293 cells transfected with HA-RBP2, 3 h at 4 °C; lysis buffer 1× PBS, 0.5% Triton X-100 with protease inhibitors; four washes; western blot with anti-HA and anti-GAPDH; only the target purified

Protein sequences, listed by entry. Tags and fused reporters are not part of them.
UniProt P31323: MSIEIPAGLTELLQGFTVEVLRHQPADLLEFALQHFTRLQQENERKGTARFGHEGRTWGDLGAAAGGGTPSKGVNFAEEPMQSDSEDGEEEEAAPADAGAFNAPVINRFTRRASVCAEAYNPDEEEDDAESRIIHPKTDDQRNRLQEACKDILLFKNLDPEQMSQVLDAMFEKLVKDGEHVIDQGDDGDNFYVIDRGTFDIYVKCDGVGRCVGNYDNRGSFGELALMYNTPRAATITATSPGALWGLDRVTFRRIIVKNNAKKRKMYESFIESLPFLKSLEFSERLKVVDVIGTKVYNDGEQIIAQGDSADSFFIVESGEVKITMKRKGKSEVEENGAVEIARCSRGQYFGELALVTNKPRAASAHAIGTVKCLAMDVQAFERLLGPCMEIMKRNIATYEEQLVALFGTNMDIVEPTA
UniProt P04406: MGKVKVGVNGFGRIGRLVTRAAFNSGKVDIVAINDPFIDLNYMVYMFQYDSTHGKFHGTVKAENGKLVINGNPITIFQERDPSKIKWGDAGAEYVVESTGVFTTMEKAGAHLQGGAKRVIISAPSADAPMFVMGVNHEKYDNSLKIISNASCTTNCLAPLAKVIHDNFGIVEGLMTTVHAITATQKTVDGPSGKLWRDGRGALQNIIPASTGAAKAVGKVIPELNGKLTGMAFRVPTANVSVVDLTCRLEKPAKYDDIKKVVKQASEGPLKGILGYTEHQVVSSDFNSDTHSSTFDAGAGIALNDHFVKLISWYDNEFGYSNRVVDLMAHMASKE

| Molecule | binding |
| --- | --- |
| GAPDH (from UniProt P04406 1-335) | no binding |
| HA-tagged rat RIM-binding protein 2 (HA-rRBP2) (protein, UniProt Q9JIR1 1-1049) MREAAERRQQLELEHEQALAILNAKQQEIQLLQQSKVRELEEKCRVQSEQFNLLSRDLEKFRQHAGSIDLLGSNSVALLDVPLAPGKPFSQYMNGLATSIHKGHEGPTGHYSVIGDYIPLSGDKLESPCVKPSFLLRSSSPRCRFESEMDDDRSSNKSKHSSSGKVHLCVARYSYNPFDGPNENPEAELPLTAGKYLYVYGDMDEDGFYEGELLDGQRGLVPSNFVDFIQDNESRFAGTLGSEQDQNFLNHSGISLERDSILHLHSPTQVDSGITDNGGGTLDVNIDDIGEDIVPYPRKITLIKQLAKSVIVGWEPPAVPPGWGTVSSYNVLVDKETRMSLALGRRTKALIEKLNTAACTYRISVQCVTSRGNSDELQCTLLVGKDVVVAPSQLRVDNITQISAQLSWLPTNSNYSHIIFLNEEELDIVKAARYKYQFFNLRPNMAYKVKVLAQPHQMPWQLPLEQREKDEACVEFSTLPAGPPAPPQDVTVQAGATTASVQVSWKPPALTPTGLSNGANVTGYGVYAKGQRVAEVIAPTANGAAVELVRLRSLEAKAVSVRTLSAQGESMDSALAAIPPDLLVPPAPHPRTAPPPKPLTSDMDTKDLGPHVKVDESWEQSRPPGPAHGHMLEPPDMHSTGPGRRSPSPSRILPQPQGAPVSTTVAKAMAREAAQRVAETSKLEKRSLFLEQSSAGPYANSDEEDGYASPEVKRRGTSVDDFLKGSELGQQPHCCHGDEYHTESSRGSDLSDIMEEDEEELYSEMQLEDGGRRRPSGTSHNALKILGNSALMGRGDRMEHVSRRYSHSGGGPQRHRPMAPSIDEYTGRDHLSPDFYDESETDPGAEELPARIFVALFDYDPLTMSPNPDAAEEELPFKEGQIIKVYGDKDADGFYRGETCARLGLIPCNMVSEIHADDEEMMDQLLRQGFLPLNTPVEKIERSRRSGRGHSVPTRRMVALYDYDPRESSPNVDVEAELLFCTGDIITVFGEIDEDGFYYGELNGQKGLVPSNFLEEVPDDVEVHLSDAPPHYSHDPPMRTKAKRVSQPP | no binding |
